Data reported in patent publication US20150110716A1, “METHODS OF USING SPECT/CT ANALYSIS FOR STAGING CANCER” (Molecular Insight Pharmaceuticals, Inc., priority 2013, published 2015).
Some of these results come from one statement about several compounds together. At least one structure is not confirmed: it was looked up by name or label, or the drawing left a doubt.

Experiment: Phase 1 cross-over study: pharmacokinetics, biodistribution, dosimetry, excretion
Format: in vivo, human
Details: full body scans after administration
Text: Pharmacokinetics, Biodistribution, Dosimetry, Metabolism & Excretion of compound represented by Formula (1) and Formula (2). Methods: Fourteen subjects (7 metastatic prostate cancer patients and 7 healthy, normal males) were enrolled in a phase 1, single-blind, randomized, cross-over study in which subjects were randomly administered a single dose (740 MBq; 20 mCi) of a compound represented by Formula (1) and a similar chemical analog, a compound represented by Formula (2), 14 days apart. […] (FIGS. 1 and 2A)

For `N[C@@H](CCCC[N+]12Cc3n(CC(=O)O)cc[n+]3[99Tc-2]1[n+]1ccn(CC(=O)O)c1C2)C(=O)NCCCCC(NC(=O)NC(CCC(=O)O)C(=O)O)C(=O)O.[C-]#[O+].[C-]#[O+].[C-]#[O+]` (some centres unmarked) [Formula (2)], the “time to concentrate in liver, kidney, urinary bladder, prostate, lacrimal glands, lymph nodes and salivary glands” value was at most 10 min.
For “(OC-6-33)-tricarbonyl[N^2-{[(1S)-1,3-dicarboxypropyl]amino]carbamoyl}-L-γ-glutamyl-N^6,N^6-bis[(1-{2-[bis(carboxymethyl)amino]-2-oxoethyl]-1H-imidazol-2-yl-κN^3]methyl]-L-lysine-κN^6](^99mTc)(+)chloride [Formula (1)]”, the “time to concentrate in liver, kidney, urinary bladder, prostate, lacrimal glands, lymph nodes and salivary glands” value was at most 10 min.
